Assay results taken from article doi:10.1101/2020.12.30.424827.
Like-named read-outs stand apart in the source and are kept apart here. No constants are given. Whether binding was seen depends on the method and setting. Binding seen in cells or lysates may run through a third protein. Some results given as binding are weak or reduced against the parent protein; the word gives no strength.

By UniProt entry, the sequences of proteins in these tests, tags left out. Residues count along the entry.
UniProt P31424, residues 21-1203: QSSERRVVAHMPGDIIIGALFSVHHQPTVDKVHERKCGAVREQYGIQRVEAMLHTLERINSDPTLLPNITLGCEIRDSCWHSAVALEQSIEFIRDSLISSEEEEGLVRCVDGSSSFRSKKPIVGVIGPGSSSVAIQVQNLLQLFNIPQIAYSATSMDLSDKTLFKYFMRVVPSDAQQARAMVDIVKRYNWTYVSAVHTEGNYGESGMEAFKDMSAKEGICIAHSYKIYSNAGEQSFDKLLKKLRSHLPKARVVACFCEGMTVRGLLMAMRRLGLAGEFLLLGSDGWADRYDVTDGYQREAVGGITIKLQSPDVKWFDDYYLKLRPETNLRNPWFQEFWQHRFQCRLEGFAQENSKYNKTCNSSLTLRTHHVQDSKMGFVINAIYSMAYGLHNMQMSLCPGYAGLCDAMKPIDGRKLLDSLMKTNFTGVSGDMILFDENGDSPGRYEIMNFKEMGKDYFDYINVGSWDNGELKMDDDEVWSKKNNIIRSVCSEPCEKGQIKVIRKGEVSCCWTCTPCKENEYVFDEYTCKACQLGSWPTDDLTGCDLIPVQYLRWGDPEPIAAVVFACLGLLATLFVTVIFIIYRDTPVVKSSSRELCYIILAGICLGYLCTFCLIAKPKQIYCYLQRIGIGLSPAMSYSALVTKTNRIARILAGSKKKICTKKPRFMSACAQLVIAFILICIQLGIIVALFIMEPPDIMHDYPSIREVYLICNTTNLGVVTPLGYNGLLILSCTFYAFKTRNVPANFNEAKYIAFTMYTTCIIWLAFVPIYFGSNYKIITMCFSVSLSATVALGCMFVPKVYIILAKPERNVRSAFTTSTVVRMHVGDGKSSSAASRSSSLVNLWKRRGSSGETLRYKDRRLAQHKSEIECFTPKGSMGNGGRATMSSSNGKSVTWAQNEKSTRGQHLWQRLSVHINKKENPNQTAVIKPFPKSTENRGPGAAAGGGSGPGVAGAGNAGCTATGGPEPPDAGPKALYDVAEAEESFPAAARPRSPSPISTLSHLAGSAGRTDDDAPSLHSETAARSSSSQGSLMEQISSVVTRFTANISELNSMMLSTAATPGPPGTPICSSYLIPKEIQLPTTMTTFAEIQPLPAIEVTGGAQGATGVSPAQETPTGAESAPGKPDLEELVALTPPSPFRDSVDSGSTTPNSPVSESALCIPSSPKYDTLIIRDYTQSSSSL

Columns and labels:
Assay in all cases: FRET or BRET
[1] = target: mGlu5-NLuc (UniProt P31424)
[2] = target: mGlu5-NLuc (UniProt P31424); remark: listed apart in the source
[3] = target: mGlu5-NLuc (UniProt P31424); remark: listed apart in the source

- binding [1]: binds
- binding [2]: binds
- binding [3]: binds
B1: Venus-Homer1c (protein, UniProt Q9Z214 1-366)
chain: MGEQPIFSTRAHVFQIDPNTKKNWVPTSKHAVTVSYFYDSTRNVYRIISLDGSKAIINSTITPNMTFTKTSQKFGQWADSRANTVYGLGFSSEHHLSKFAEKFQEFKEAARLAKEKSQEKMELTSTPSQESAGGDLQSPLTPESINGTDDERTPDVTQNSEPRAEPAQNALPFSHSAGDRTQGLSHASSAISKHWEAELATLKGNNAKLTAALLESTANVKQWKQQLAAYQEEAERLHKRVTELECVSSQANAVHSHKTELSQTVQELEETLKVKEEEIERLKQEIDNARELQEQRDSLTQKLQEVEIRNKDLEGQLSELEQRLEKSQSEQDAFRSNLKTLLEILDGKIFELTELRDNLAKLLECS
